These are yes or no findings as the source states them, for the method shown. Binding seen in cells or lysates may run through a third protein. Some entries that bind do so weakly or less than the wild type. Tags and fused reporters may be left off the sequences shown.

The chains behind the UniProt entries cited, without tags or fusion partners.
UniProt Q8NI35: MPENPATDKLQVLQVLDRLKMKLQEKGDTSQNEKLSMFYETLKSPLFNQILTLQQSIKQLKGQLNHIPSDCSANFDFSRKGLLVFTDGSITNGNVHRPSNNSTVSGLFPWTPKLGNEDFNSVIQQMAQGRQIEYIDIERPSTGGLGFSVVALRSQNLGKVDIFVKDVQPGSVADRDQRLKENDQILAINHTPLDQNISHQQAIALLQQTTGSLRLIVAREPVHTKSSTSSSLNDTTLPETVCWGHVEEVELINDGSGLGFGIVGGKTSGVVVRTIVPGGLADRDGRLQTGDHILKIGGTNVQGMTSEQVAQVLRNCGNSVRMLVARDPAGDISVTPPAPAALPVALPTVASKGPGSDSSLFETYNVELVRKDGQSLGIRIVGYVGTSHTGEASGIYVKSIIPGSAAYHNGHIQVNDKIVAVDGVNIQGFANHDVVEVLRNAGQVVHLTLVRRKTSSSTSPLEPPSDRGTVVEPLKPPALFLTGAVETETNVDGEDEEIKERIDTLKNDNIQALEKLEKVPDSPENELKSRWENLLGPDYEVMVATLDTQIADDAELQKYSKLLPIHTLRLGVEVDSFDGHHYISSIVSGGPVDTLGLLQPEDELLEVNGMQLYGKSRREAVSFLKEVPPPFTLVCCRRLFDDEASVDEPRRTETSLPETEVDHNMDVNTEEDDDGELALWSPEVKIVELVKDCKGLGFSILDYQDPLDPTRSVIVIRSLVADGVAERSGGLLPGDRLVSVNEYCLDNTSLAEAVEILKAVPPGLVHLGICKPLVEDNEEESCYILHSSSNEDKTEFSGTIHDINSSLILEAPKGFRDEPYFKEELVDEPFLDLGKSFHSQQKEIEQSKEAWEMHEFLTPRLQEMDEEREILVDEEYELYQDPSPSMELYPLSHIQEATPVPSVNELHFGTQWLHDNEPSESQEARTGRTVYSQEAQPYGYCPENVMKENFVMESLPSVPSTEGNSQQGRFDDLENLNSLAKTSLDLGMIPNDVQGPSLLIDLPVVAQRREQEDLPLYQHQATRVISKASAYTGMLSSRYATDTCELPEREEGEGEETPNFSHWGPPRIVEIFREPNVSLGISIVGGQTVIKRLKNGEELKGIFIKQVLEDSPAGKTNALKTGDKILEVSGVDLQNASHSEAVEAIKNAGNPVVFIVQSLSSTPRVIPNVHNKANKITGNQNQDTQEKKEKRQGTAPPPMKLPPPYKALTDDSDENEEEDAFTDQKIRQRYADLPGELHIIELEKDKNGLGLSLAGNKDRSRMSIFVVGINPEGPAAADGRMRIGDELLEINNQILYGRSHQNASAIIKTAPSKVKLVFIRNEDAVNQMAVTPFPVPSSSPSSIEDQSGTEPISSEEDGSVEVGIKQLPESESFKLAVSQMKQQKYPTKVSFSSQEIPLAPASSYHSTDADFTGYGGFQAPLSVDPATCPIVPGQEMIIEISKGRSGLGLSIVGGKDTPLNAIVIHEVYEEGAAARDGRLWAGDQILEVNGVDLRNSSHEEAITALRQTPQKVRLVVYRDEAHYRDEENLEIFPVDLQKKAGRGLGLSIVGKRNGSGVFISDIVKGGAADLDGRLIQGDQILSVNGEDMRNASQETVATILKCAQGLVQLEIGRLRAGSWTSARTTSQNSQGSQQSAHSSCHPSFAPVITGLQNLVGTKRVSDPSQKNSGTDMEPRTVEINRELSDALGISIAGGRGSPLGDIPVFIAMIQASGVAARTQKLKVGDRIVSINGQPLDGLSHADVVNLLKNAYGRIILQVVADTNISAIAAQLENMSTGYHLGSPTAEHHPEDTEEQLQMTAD
UniProt P35240: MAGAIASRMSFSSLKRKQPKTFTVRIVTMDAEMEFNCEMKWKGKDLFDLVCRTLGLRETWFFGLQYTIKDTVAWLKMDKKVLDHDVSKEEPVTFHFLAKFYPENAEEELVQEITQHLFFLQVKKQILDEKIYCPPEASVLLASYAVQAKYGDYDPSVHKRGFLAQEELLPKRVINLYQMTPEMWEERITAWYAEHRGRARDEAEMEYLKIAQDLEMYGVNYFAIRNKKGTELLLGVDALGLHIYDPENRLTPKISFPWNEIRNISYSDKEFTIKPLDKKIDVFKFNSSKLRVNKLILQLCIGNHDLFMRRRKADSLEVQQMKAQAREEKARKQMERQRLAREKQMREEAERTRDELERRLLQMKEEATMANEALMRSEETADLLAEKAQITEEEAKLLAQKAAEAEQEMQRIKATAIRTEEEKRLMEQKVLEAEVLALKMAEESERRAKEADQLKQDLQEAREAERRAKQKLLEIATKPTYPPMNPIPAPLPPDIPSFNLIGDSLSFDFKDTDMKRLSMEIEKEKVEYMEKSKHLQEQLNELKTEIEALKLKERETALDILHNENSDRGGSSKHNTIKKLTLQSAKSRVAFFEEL

For four molecules, binding results are on record in PMC5415356.

Common to all, as to assay: co-IP; HEK293-shAmot cells co-transfected with an Amot-p130 allele (WT, S176A, S176E or PY motif mutants) and tagged partners; total RIPA lysate, IP with tag or protein antibodies overnight, immunoblot
For orientation: A western blot detects proteins with antibodies after separation by electrophoresis.

Assay [1] deals with T1, HA-Amot-p130^S176E (mouse (by the paper's numbering: Ser176 in mouse, Ser175 in human)) (UniProt Q8VHG2).
T1 sequence: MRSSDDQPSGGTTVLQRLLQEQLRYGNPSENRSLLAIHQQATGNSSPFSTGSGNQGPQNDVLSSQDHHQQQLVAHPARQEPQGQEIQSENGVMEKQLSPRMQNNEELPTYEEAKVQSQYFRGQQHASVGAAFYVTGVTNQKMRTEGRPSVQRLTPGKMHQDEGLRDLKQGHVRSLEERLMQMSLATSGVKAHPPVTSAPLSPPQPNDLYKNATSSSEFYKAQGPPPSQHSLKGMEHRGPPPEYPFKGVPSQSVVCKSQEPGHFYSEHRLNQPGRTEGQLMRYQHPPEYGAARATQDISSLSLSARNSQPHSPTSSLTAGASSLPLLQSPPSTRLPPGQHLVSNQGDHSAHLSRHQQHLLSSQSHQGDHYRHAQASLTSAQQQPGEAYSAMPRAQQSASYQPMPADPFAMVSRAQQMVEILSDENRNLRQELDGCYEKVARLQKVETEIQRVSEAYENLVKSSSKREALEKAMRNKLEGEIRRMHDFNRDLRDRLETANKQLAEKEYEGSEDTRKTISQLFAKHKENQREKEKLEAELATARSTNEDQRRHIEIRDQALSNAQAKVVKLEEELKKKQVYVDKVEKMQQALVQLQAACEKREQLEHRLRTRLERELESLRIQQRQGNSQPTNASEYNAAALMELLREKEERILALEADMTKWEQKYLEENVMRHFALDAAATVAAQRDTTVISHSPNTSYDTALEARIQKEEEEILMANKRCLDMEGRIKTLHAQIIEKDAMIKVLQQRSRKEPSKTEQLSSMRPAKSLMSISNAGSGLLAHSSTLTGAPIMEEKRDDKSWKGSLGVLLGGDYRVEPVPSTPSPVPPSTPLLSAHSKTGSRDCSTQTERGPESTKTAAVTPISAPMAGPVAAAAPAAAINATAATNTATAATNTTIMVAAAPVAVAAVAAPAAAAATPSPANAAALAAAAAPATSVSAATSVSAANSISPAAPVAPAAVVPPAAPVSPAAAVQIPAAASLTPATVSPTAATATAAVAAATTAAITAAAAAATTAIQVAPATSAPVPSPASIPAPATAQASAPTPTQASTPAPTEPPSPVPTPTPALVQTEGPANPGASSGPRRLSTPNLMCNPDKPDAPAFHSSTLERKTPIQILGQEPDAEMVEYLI

Assay [2] deals with T2, HA-Amot-p130 (mouse (by the paper's numbering: Ser176 in mouse, Ser175 in human)) (UniProt Q8VHG2).
T2 sequence: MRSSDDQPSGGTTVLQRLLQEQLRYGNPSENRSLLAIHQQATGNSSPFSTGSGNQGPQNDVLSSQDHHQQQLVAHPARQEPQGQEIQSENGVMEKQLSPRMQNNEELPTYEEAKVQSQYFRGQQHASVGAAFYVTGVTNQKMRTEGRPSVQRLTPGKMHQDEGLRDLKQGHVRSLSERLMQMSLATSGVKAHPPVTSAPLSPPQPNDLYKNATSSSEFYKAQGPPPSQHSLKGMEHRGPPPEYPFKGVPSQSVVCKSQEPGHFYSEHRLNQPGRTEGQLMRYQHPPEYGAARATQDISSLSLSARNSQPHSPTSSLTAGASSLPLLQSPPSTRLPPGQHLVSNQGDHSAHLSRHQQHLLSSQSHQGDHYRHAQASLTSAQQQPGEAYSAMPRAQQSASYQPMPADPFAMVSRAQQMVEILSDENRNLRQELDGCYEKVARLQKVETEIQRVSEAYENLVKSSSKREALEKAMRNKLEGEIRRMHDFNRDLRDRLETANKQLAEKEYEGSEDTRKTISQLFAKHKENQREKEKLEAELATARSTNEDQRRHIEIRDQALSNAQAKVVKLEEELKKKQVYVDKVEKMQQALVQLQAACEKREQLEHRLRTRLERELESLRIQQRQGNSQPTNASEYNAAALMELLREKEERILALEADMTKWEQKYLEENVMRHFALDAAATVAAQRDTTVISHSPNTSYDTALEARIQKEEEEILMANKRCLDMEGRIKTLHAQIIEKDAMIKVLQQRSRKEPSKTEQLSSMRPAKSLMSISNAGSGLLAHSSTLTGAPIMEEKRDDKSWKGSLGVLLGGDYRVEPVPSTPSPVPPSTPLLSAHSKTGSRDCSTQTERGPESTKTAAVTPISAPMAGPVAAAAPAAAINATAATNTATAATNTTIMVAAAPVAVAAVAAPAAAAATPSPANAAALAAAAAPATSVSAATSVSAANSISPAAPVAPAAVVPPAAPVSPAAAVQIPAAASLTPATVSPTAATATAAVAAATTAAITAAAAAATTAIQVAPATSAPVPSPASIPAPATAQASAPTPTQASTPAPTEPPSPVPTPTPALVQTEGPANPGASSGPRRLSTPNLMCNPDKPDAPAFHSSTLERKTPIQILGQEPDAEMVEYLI

Assay [3] addresses T3, HA-Amot-p130^S176A (mouse (by the paper's numbering: Ser176 in mouse, Ser175 in human)) (UniProt Q8VHG2).
T3 sequence: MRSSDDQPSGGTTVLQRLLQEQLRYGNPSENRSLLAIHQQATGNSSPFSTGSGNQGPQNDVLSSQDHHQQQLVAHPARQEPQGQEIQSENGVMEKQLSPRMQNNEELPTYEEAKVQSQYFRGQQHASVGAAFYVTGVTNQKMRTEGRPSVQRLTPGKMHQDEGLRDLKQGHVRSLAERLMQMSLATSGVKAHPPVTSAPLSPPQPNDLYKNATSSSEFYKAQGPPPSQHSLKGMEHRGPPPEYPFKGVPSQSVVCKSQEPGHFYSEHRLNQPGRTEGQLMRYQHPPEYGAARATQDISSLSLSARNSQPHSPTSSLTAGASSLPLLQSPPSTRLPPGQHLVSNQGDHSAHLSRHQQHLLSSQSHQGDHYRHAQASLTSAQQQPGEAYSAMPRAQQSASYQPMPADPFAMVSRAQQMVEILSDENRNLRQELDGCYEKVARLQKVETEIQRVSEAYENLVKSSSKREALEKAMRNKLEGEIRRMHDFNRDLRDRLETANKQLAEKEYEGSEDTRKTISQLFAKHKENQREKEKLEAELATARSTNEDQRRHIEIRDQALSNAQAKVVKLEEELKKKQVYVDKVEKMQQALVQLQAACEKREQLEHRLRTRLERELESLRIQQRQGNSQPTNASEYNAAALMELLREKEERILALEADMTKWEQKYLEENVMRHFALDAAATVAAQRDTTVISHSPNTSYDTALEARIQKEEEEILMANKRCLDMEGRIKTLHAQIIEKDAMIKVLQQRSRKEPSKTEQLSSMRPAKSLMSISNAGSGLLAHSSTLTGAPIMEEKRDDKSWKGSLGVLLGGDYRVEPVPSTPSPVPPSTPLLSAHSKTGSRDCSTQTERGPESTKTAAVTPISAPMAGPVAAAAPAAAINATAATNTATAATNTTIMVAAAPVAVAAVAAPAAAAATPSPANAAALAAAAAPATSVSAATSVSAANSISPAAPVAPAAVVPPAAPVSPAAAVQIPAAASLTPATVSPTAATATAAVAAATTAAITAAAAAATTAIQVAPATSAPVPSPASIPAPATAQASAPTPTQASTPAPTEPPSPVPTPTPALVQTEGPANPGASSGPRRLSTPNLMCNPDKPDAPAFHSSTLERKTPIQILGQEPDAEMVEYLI

The target of another assay is Flag-tagged Patj (UniProt Q8NI35).

In the case of “Flag-tagged Patj (from UniProt Q8NI35 1-1801)”, the binding entry in assay [1] is “binds”. “Flag-tagged Merlin (from UniProt P35240 1-595)”: the binding result in assay [2], in assay [3] and in assay [1] was “binds” each time.

B1: HA-Amot-p130 (protein, UniProt Q8VHG2 1-1126)
chain: MRSSDDQPSGGTTVLQRLLQEQLRYGNPSENRSLLAIHQQATGNSSPFSTGSGNQGPQNDVLSSQDHHQQQLVAHPARQEPQGQEIQSENGVMEKQLSPRMQNNEELPTYEEAKVQSQYFRGQQHASVGAAFYVTGVTNQKMRTEGRPSVQRLTPGKMHQDEGLRDLKQGHVRSLSERLMQMSLATSGVKAHPPVTSAPLSPPQPNDLYKNATSSSEFYKAQGPPPSQHSLKGMEHRGPPPEYPFKGVPSQSVVCKSQEPGHFYSEHRLNQPGRTEGQLMRYQHPPEYGAARATQDISSLSLSARNSQPHSPTSSLTAGASSLPLLQSPPSTRLPPGQHLVSNQGDHSAHLSRHQQHLLSSQSHQGDHYRHAQASLTSAQQQPGEAYSAMPRAQQSASYQPMPADPFAMVSRAQQMVEILSDENRNLRQELDGCYEKVARLQKVETEIQRVSEAYENLVKSSSKREALEKAMRNKLEGEIRRMHDFNRDLRDRLETANKQLAEKEYEGSEDTRKTISQLFAKHKENQREKEKLEAELATARSTNEDQRRHIEIRDQALSNAQAKVVKLEEELKKKQVYVDKVEKMQQALVQLQAACEKREQLEHRLRTRLERELESLRIQQRQGNSQPTNASEYNAAALMELLREKEERILALEADMTKWEQKYLEENVMRHFALDAAATVAAQRDTTVISHSPNTSYDTALEARIQKEEEEILMANKRCLDMEGRIKTLHAQIIEKDAMIKVLQQRSRKEPSKTEQLSSMRPAKSLMSISNAGSGLLAHSSTLTGAPIMEEKRDDKSWKGSLGVLLGGDYRVEPVPSTPSPVPPSTPLLSAHSKTGSRDCSTQTERGPESTKTAAVTPISAPMAGPVAAAAPAAAINATAATNTATAATNTTIMVAAAPVAVAAVAAPAAAAATPSPANAAALAAAAAPATSVSAATSVSAANSISPAAPVAPAAVVPPAAPVSPAAAVQIPAAASLTPATVSPTAATATAAVAAATTAAITAAAAAATTAIQVAPATSAPVPSPASIPAPATAQASAPTPTQASTPAPTEPPSPVPTPTPALVQTEGPANPGASSGPRRLSTPNLMCNPDKPDAPAFHSSTLERKTPIQILGQEPDAEMVEYLI
On to B1, for which, in the assay with Flag-tagged Patj, the binding entry is “binds”.

B2: HA-Amot-p130^S176A (protein, UniProt Q8VHG2 1-1126)
chain: MRSSDDQPSGGTTVLQRLLQEQLRYGNPSENRSLLAIHQQATGNSSPFSTGSGNQGPQNDVLSSQDHHQQQLVAHPARQEPQGQEIQSENGVMEKQLSPRMQNNEELPTYEEAKVQSQYFRGQQHASVGAAFYVTGVTNQKMRTEGRPSVQRLTPGKMHQDEGLRDLKQGHVRSLAERLMQMSLATSGVKAHPPVTSAPLSPPQPNDLYKNATSSSEFYKAQGPPPSQHSLKGMEHRGPPPEYPFKGVPSQSVVCKSQEPGHFYSEHRLNQPGRTEGQLMRYQHPPEYGAARATQDISSLSLSARNSQPHSPTSSLTAGASSLPLLQSPPSTRLPPGQHLVSNQGDHSAHLSRHQQHLLSSQSHQGDHYRHAQASLTSAQQQPGEAYSAMPRAQQSASYQPMPADPFAMVSRAQQMVEILSDENRNLRQELDGCYEKVARLQKVETEIQRVSEAYENLVKSSSKREALEKAMRNKLEGEIRRMHDFNRDLRDRLETANKQLAEKEYEGSEDTRKTISQLFAKHKENQREKEKLEAELATARSTNEDQRRHIEIRDQALSNAQAKVVKLEEELKKKQVYVDKVEKMQQALVQLQAACEKREQLEHRLRTRLERELESLRIQQRQGNSQPTNASEYNAAALMELLREKEERILALEADMTKWEQKYLEENVMRHFALDAAATVAAQRDTTVISHSPNTSYDTALEARIQKEEEEILMANKRCLDMEGRIKTLHAQIIEKDAMIKVLQQRSRKEPSKTEQLSSMRPAKSLMSISNAGSGLLAHSSTLTGAPIMEEKRDDKSWKGSLGVLLGGDYRVEPVPSTPSPVPPSTPLLSAHSKTGSRDCSTQTERGPESTKTAAVTPISAPMAGPVAAAAPAAAINATAATNTATAATNTTIMVAAAPVAVAAVAAPAAAAATPSPANAAALAAAAAPATSVSAATSVSAANSISPAAPVAPAAVVPPAAPVSPAAAVQIPAAASLTPATVSPTAATATAAVAAATTAAITAAAAAATTAIQVAPATSAPVPSPASIPAPATAQASAPTPTQASTPAPTEPPSPVPTPTPALVQTEGPANPGASSGPRRLSTPNLMCNPDKPDAPAFHSSTLERKTPIQILGQEPDAEMVEYLI
For the molecule B2, in the assay with Flag-tagged Patj, the binding result is recorded as “no binding”.
